Drawing on publication PMC4904241, this text covers binding for three molecules.

Protein sequences, listed by entry. Tags and fused reporters are not part of them. Lines headed by an entry give the natural chain unless they say otherwise; changes in a name come on top.
UniProt Q8IXL6: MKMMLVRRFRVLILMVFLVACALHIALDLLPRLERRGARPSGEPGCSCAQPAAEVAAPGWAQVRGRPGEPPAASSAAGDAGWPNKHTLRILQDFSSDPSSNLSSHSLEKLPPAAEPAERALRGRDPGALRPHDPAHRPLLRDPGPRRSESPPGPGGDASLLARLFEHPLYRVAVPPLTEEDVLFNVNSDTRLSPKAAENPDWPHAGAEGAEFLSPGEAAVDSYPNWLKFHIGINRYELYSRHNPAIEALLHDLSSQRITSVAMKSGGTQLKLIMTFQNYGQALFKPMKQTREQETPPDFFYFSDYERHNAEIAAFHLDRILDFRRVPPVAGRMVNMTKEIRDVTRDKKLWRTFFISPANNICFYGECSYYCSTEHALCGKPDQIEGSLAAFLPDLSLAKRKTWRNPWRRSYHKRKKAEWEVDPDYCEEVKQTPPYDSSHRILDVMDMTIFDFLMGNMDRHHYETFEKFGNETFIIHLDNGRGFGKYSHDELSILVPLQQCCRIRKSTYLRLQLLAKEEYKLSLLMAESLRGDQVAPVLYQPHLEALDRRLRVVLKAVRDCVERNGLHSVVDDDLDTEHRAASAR

For test [1], the target named is T1, GST-FAM20A fusion protein (human) (UniProt Q96MK3).
T1 sequence: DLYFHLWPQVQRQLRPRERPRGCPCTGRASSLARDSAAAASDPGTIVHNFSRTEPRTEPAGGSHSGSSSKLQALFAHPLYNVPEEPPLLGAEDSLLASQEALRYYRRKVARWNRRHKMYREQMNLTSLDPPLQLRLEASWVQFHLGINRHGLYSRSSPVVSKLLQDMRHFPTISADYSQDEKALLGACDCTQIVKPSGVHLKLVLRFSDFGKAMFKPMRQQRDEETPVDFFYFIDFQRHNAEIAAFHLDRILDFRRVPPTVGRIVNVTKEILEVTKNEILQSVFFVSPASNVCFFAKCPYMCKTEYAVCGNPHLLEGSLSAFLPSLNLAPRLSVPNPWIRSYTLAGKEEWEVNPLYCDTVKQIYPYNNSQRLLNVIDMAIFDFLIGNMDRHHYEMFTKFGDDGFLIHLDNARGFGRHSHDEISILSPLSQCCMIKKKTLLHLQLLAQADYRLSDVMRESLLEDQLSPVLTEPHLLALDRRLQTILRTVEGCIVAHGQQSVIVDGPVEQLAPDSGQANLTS
The test is described as follows: pull-down; GST or GST-FAM20A incubated with rhFAM20C WT- or D478A-V5/His overnight at 4 °C, glutathione-sepharose beads added, washed twice with lysis buffer, Western blot with anti-V5 antibody; both purified.

For test [2], the target named is T2, FAM20A WT-Flag (human) (UniProt Q96MK3).
T2 sequence: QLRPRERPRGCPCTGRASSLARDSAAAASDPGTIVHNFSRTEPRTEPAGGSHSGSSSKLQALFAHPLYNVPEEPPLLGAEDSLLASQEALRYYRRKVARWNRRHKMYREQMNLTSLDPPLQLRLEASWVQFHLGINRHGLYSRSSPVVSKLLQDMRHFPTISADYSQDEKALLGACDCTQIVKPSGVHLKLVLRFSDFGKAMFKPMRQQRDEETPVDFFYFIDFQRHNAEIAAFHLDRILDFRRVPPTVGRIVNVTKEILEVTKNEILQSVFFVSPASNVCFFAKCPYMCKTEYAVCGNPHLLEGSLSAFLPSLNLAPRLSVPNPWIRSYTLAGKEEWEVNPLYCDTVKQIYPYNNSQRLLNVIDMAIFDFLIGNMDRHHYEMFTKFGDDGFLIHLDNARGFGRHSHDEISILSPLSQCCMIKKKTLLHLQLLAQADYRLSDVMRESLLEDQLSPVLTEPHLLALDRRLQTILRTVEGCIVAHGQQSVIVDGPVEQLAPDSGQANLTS
Nature of the test: co-IP; 293 cells co-transfected with FAM20A WT-Flag and FAM20C-HA; lysates after 24 hours immunoprecipitated with anti-Flag antibody, Western blot with anti-HA antibody. For orientation: Immunoblotting shows a protein as a band on a membrane.

Test [3] addresses rhFAM20C WT-V5/His (human) (UniProt Q8IXL6). Nature of the test: co-IP; 293 cells co-transfected with FAM20A WT-HA and FAM20C WT-, D478A- or P328S-V5; lysates immunoprecipitated with anti-V5 antibody, Western blot with anti-HA antibody.
In test [4] the target is FAM20C P328S-V5 (human) (UniProt Q8IXL6). The description is as above.

These are yes or no findings as the source states them, for the method shown. For some of these results: Binding seen in cells or lysates may run through a third protein. For some of these results: A result given as binding can be weak or reduced; the word gives no strength. Sequences can lack the tags named with a protein.

With “rhFAM20C WT-V5/His (from UniProt Q8IXL6) (enzyme)”, the binding result in test [1] was “no binding”. Take FAM20C WT-HA (from UniProt Q8IXL6): in test [2], the binding result is given as “binds”.

B1: FAM20A WT-HA (protein, UniProt Q96MK3 34-541)
chain: T2 sequence
As for B1, the binding entry in test [3] and in test [4] was “binds” each time.
